Data as given in PubChem BioAssay AID1259308 (NCATS, 2017)

- Test: 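Knock-downs that increase output of a recombinant reporter protein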 (primary screen)
- System: human HEK293 embryonic kidney cells stably expressing firefly luciferase (HEK-CMV-Luc2-Hygro)
- Reagent: single siRNA against human genes, 0.8 pmol siRNA per well
- Timing: 72 h
- Read-out: 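Luciferase light (ONE-Glo) measured on one replicate plate set and viability (CellTiter-Glo) on the other, scaled to a negative control siRNA, with robust z-scores and luciferase per cell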
- Direction: total luciferase, z-score: higher = more reporter protein produced
- Hit rule: 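An siRNA counts as active if its total luciferase robust z-score exceeds 3; genes with two or more such siRNAs out of three were retested with fresh siRNAs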
- Meaning of the calls: active = raised luciferase; inactive = no rise
The deposit covers about 59,000 reagents; shown is a random part of them. About 1,510 of them (2.6%) count as active. 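Calls use total luciferase alone and ignore viability, so some active siRNAs may act by altering cell number.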 The numbers tell different reagents against one gene apart. Further read-outs or replicates are left out here. Reagent sequences are not shown.

no.	gene knocked down	siRNA no.	total luciferase, z-score	Outcome
1	SP8 (Sp8 transcription factor)	1	1.47	inactive
2	SP8 (Sp8 transcription factor)	2	1.49	inactive
3	SP8 (Sp8 transcription factor)	3	1.78	inactive
4	LAMA1 (laminin subunit alpha 1)	1	1.02	inactive
5	LAMA1 (laminin subunit alpha 1)	2	0.86	inactive
6	LAMA1 (laminin subunit alpha 1)	3	-0.828	inactive
7	UCA1 (urothelial cancer associated 1)	1	0.369	inactive
8	UCA1 (urothelial cancer associated 1)	2	0.568	inactive
9	UCA1 (urothelial cancer associated 1)	3	1.27	inactive
10	ILDR2 (immunoglobulin like domain containing receptor 2)	1	-1.26	inactive
11	ILDR2 (immunoglobulin like domain containing receptor 2)	2	-0.0019	inactive
12	ILDR2 (immunoglobulin like domain containing receptor 2)	3	1.28	inactive
13	PNMA1 (PNMA family member 1)	1	0.0422	inactive
14	PNMA1 (PNMA family member 1)	2	0.666	inactive
15	PNMA1 (PNMA family member 1)	3	2.04	inactive
16	VIP (vasoactive intestinal peptide)	1	-0.783	inactive
17	VIP (vasoactive intestinal peptide)	2	2.22	inactive
18	VIP (vasoactive intestinal peptide)	3	-0.0217	inactive
19	NUP160 (nucleoporin 160)	1	-0.526	inactive
20	NUP160 (nucleoporin 160)	2	0.188	inactive
21	NUP160 (nucleoporin 160)	3	-1	inactive
22	SEC16B (SEC16 homolog B, endoplasmic reticulum export factor)	1	-0.718	inactive
23	SEC16B (SEC16 homolog B, endoplasmic reticulum export factor)	2	0.0355	inactive
24	SEC16B (SEC16 homolog B, endoplasmic reticulum export factor)	3	-0.114	inactive
25	N4BP2 (NEDD4 binding protein 2)	1	0.826	inactive
26	N4BP2 (NEDD4 binding protein 2)	2	0.318	inactive
27	N4BP2 (NEDD4 binding protein 2)	3	1.35	inactive
28	TOMM20L (translocase of outer mitochondrial membrane 20 like)	1	0.799	inactive
29	TOMM20L (translocase of outer mitochondrial membrane 20 like)	2	4.39	active
30	TOMM20L (translocase of outer mitochondrial membrane 20 like)	3	0.571	inactive
31	MUC12 (mucin 12, cell surface associated)	1	-2.56	inactive
32	MUC12 (mucin 12, cell surface associated)	2	0.363	inactive
33	MUC12 (mucin 12, cell surface associated)	3	1.1	inactive
34	NR2C2AP (nuclear receptor 2C2 associated protein)	1	0.535	inactive
35	NR2C2AP (nuclear receptor 2C2 associated protein)	2	1.31	inactive
36	NR2C2AP (nuclear receptor 2C2 associated protein)	3	1.73	inactive
37	MAP1B (microtubule associated protein 1B)	1	0.663	inactive
38	MAP1B (microtubule associated protein 1B)	2	-0.305	inactive
39	MAP1B (microtubule associated protein 1B)	3	-0.134	inactive
40	TTC4 (tetratricopeptide repeat domain 4)	1	2.22	inactive
41	TTC4 (tetratricopeptide repeat domain 4)	2	0.474	inactive
42	TTC4 (tetratricopeptide repeat domain 4)	3	0.807	inactive

Next part (4 carried over from the part before).
no.	gene knocked down	siRNA no.	total luciferase, z-score	Outcome
39	MAP1B (microtubule associated protein 1B)	3	-0.134	inactive
40	TTC4 (tetratricopeptide repeat domain 4)	1	2.22	inactive
41	TTC4 (tetratricopeptide repeat domain 4)	2	0.474	inactive
42	TTC4 (tetratricopeptide repeat domain 4)	3	0.807	inactive
43	C1QTNF12 (C1q and TNF related 12)	1	-0.34	inactive
44	C1QTNF12 (C1q and TNF related 12)	2	3.58	active
45	C1QTNF12 (C1q and TNF related 12)	3	-1	inactive
46	ANXA9 (annexin A9)	1	0.33	inactive
47	ANXA9 (annexin A9)	2	0.917	inactive
48	ANXA9 (annexin A9)	3	0.882	inactive
49	KRT23 (keratin 23)	1	0.707	inactive
50	KRT23 (keratin 23)	2	-0.0282	inactive
51	KRT23 (keratin 23)	3	-0.467	inactive
52	BID (BH3 interacting domain death agonist)	1	-1.86	inactive
53	BID (BH3 interacting domain death agonist)	2	0.92	inactive
54	BID (BH3 interacting domain death agonist)	3	1.58	inactive
55	ASPDH (aspartate dehydrogenase domain containing)	1	-0.085	inactive
56	ASPDH (aspartate dehydrogenase domain containing)	2	0.149	inactive
57	ASPDH (aspartate dehydrogenase domain containing)	3	0.706	inactive
58	SLTM (SAFB like transcription modulator)	1	-0.0344	inactive
59	SLTM (SAFB like transcription modulator)	2	-0.508	inactive
60	SLTM (SAFB like transcription modulator)	3	0.618	inactive
61	SRSF6 (serine and arginine rich splicing factor 6)	1	2.39	inactive
62	SRSF6 (serine and arginine rich splicing factor 6)	2	-0.0199	inactive
63	SRSF6 (serine and arginine rich splicing factor 6)	3	-0.67	inactive
64	RFLNB (refilin B)	1	-1.49	inactive
65	RFLNB (refilin B)	2	0.754	inactive
66	RFLNB (refilin B)	3	0.561	inactive
67	RPS25P6 (ribosomal protein S25 pseudogene 6)	1	-1.33	inactive
68	RPS25P6 (ribosomal protein S25 pseudogene 6)	2	-1.44	inactive
69	RPS25P6 (ribosomal protein S25 pseudogene 6)	3	-1.87	inactive
70	NAGPA	1	-0.015	inactive
71	NAGPA	2	2.63	inactive
72	NAGPA	3	-0.69	inactive
73	GEMIN8 (gem nuclear organelle associated protein 8)	1	1.15	inactive
74	GEMIN8 (gem nuclear organelle associated protein 8)	2	1.36	inactive
75	GEMIN8 (gem nuclear organelle associated protein 8)	3	1.66	inactive
